Patent US11708346B2, “Treatment and prevention of neuropathic pain with P2Y14 antagonists” (Saint Louis University, priority 2019, dated 2023)
Some of these results come from one statement about several compounds together.

System: CCI-induced mechano-allodynia
Experiment: Chronic constriction injury (CCI) of the sciatic nerve, mechano-allodynia by von Frey filaments
Assay type: in vivo, mouse
Conditions: 10 μmol/kg i.p.
Protocol: Chronic constriction injury (CCI) to the sciatic nerve was performed using the Bennett model. […] Then the animals were placed on a sterile surgical field and the skin was wiped with topical antiseptic, Dermachlor solution (0.2% chlorhexidine gluconate). […] A small incision was created on the lateral side of the left hind limb parallel to the femur. The sciatic nerve was exposed and ligated on two sites about 1 mm apart above the trifurcation using silk sutures 6.0. The incision was closed with clips and lidocaine cream was applied.
Mice were acclimated to the testing mesh-rack for 30 min before behavioral measurements. All behavioral testing was performed in the morning. The baseline measurements were determined on day 0 before CCI procedure. On day 7 post-CCI, baseline behavior responses were assessed, beginning prior to drug administration. Following drug injection, the behaviors were evaluated at multiple time points. Mechano-allodynia was quantified according to the hind paw withdrawal response to von Frey filaments stimulation by the Dixon up-and-down method. […] In presence of a positive withdrawal response a lighter filament was applied. […] At least four readings are obtained after the first positive response and the pattern of response was converted to a 50% paw withdrawal threshold (PWT), using the method described by Chaplan et al., J. Neurosci. […]

Row | Compound | Ratio of protection at 3 h divided by the protection at 5 h (duration of action)
1 | O=C(O)c1cc(O)c2ccc(-c3ccc(C(F)(F)F)cc3)cc2c1 [Compound 2] | 0.34-0.63
2 | CCC(=O)N1CCC(c2ccc(-c3cc(C(=O)O)cc4cc(-c5ccc(C(F)(F)F)cc5)ccc34)cc2)CC1 [Compound 5, 4-(4-(1-(Propionyl)piperidin-4-yl)phenyl)-7-(4-(trifluoromethyl)phenyl)-2-naphthoic acid] | 0.72-0.92
